Results reported in PubChem BioAssay AID504444 (National Center for Advancing Translational Sciences (NCATS), 2011).
Screen size: about 360,000 compounds; about 7,500 (2.1%) were called active. This list was built around the results that the source calls inconclusive (neither active nor inactive); the mix of calls is not that of the screen. Calls follow the shape of the dose curve; as a rule, active = well fitted inhibition curve with a large enough effect; inconclusive = small, poorly fitted or top-dose-only effect, or effect the other way; inactive = flat fitted curve, though single readings scatter. Potencies of inconclusive entries are doubtful fits and often do not repeat.

Assay: Nrf2 qHTS screen for inhibitors; also: nearly all actives have a fitted effect of over 60% in size
Conditions: A549 ARE-Fluc reporter, luciferase luminescence, 18-24 h; series mostly up to 46 µM
Procedure, shortened: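 Nrf2 activity is the BugLite luminescence, read 15 min after reagent at room temperature, following CellTiter-Fluor cytotoxicity readout (30 min, 37C). Compound titrations were applied for 18-24 h to 5000 A549 ARE_Fluc cells/well in 5% FBS OPTI-MEM.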
Potency is read from the fitted curve at half-maximal effect.

Row | SMILES | Potency
1 | CO/N=C/c1ccc(N2CCN(C(=O)c3ccc(Cl)cc3Cl)CC2)c([N+](=O)[O-])c1 | active: 6.51 µM
2 | CCCCNC(=O)N1c2ccccc2CC1C (configuration not stated) | inconclusive: 16.4 µM [activator, partial curve, poor fit]
3 | COC(=O)C1=C(C)NC2=C(C(=O)CC(C)(C)C2)C1c1cn(Cc2ccc(Br)cc2)nc1-c1ccccc1 (configuration not stated) | active: 12.6 µM
4 | Nc1c(C(=O)Nc2ccccc2)c2nc3ccccc3nc2n1CCCN1CCOCC1 | inconclusive: 4.61 µM [falling, partial curve, poor fit]
5 | CC1CC(C)CN(S(=O)(=O)N2CCC(C(=O)NCCC3=CCCCC3)CC2)C1 (configuration not stated) | inconclusive: 7.31 µM [falling, partial curve, poor fit]
6 | COc1ccc(Br)cc1CN(C)CC(=O)Nc1c(Cl)ccc(C)c1Cl | active: 18.4 µM
7 | CCCNC(=O)c1ccccc1NC(=O)c1ccccc1N(C)S(=O)(=O)c1ccc(C)cc1 | inconclusive: 25.9 µM [falling, single point]
8 | COC(=O)Cn1c(=NC(=O)c2nc3ccccc3s2)sc2cc(S(N)(=O)=O)ccc21 | inconclusive: 0.0041 µM [falling, full curve, poor fit]
9 | CCC(=O)Nc1ccc(NC(=S)NC(=O)/C=C/c2ccccc2)cc1 | inconclusive: 29.1 µM [falling, single point]
10 | Cc1cccc(NC2=CC(c3cccc(Br)c3)N(c3cccc(C)c3)C2=O)c1 (configuration not stated) | inconclusive: 2.31 µM [activator, partial curve]
11 | CCOC(=O)c1c(C)[nH]c(C)c1S(=O)(=O)NCC(=O)N1CCN(c2cccc(C)c2)C(C)C1 (configuration not stated) | inconclusive: 18.4 µM [activator, partial curve, poor fit]
12 | S=C(NCCCc1cnc[nH]1)NCCCN(Cc1ccc(Cl)cc1)c1ccc(Br)cn1 | inactive
13 | COc1ccc(Cn2cccc(NC(=O)Nc3cccc(OC)c3)c2=O)cc1 | active: 5.17 µM
14 | O=C(CCSc1ccc(Cl)cc1)N1CCN(S(=O)(=O)c2ccccc2)CC1 | inactive
15 | CCOC(=O)c1ccc(Nc2nc(-c3cccnc3)nc3ccccc23)cc1 | inconclusive: 29.1 µM [falling, single point]
16 | CN1CCCN(Cc2nc(-c3ccc(Cl)cc3)no2)CC1 | inactive
17 | CC(C(=O)Nc1ccccc1-c1ccccc1)N1CCN(C(=O)c2ccccc2)CC1 (configuration not stated) | inconclusive: 14.6 µM [activator, partial curve]
18 | O=[N+]([O-])c1ccc(O)c(/C=N/Nc2ccc(Cl)nn2)c1 | active: 3.66 µM
19 | Nc1c(C(=O)Nc2ccccc2F)sc2nc(-c3ccco3)ccc12 | inconclusive: 32.6 µM [falling, single point]
20 | COc1ccc(NS(=O)(=O)c2cccc(C(=O)N3CCN(Cc4ccc5c(c4)OCO5)CC3)c2)cc1 | inconclusive: 29.1 µM [falling, single point]
21 | Cc1c(Cl)cccc1NC(=S)NNS(=O)(=O)c1ccc([N+](=O)[O-])cc1 | inconclusive: 20.6 µM [falling, partial curve, poor fit]
22 | Clc1ccccc1C(c1ccccc1)(c1ccccc1)n1ccnc1 | inconclusive: 32.6 µM [falling, single point]
23 | CCc1ccc2[nH]c(=O)c(CN(Cc3ccco3)S(=O)(=O)c3ccc4c(c3)OCCO4)cc2c1 | inconclusive: 6.51 µM [falling, single point]

An excerpt from above in order of length of the SMILES, descending.
Row | SMILES | Potency
3 | COC(=O)C1=C(C)NC2=C(C(=O)CC(C)(C)C2)C1c1cn(Cc2ccc(Br)cc2)nc1-c1ccccc1 (configuration not stated) | active: 12.6 µM
11 | CCOC(=O)c1c(C)[nH]c(C)c1S(=O)(=O)NCC(=O)N1CCN(c2cccc(C)c2)C(C)C1 (configuration not stated) | inconclusive: 18.4 µM [activator, partial curve, poor fit]
20 | COc1ccc(NS(=O)(=O)c2cccc(C(=O)N3CCN(Cc4ccc5c(c4)OCO5)CC3)c2)cc1 | inconclusive: 29.1 µM [falling, single point]
23 | CCc1ccc2[nH]c(=O)c(CN(Cc3ccco3)S(=O)(=O)c3ccc4c(c3)OCCO4)cc2c1 | inconclusive: 6.51 µM [falling, single point]
1 | CO/N=C/c1ccc(N2CCN(C(=O)c3ccc(Cl)cc3Cl)CC2)c([N+](=O)[O-])c1 | active: 6.51 µM
7 | CCCNC(=O)c1ccccc1NC(=O)c1ccccc1N(C)S(=O)(=O)c1ccc(C)cc1 | inconclusive: 25.9 µM [falling, single point]
21 | Cc1c(Cl)cccc1NC(=S)NNS(=O)(=O)c1ccc([N+](=O)[O-])cc1 | inconclusive: 20.6 µM [falling, partial curve, poor fit]
12 | S=C(NCCCc1cnc[nH]1)NCCCN(Cc1ccc(Cl)cc1)c1ccc(Br)cn1 | inactive
5 | CC1CC(C)CN(S(=O)(=O)N2CCC(C(=O)NCCC3=CCCCC3)CC2)C1 (configuration not stated) | inconclusive: 7.31 µM [falling, partial curve, poor fit]
10 | Cc1cccc(NC2=CC(c3cccc(Br)c3)N(c3cccc(C)c3)C2=O)c1 (configuration not stated) | inconclusive: 2.31 µM [activator, partial curve]
14 | O=C(CCSc1ccc(Cl)cc1)N1CCN(S(=O)(=O)c2ccccc2)CC1 | inactive
15 | CCOC(=O)c1ccc(Nc2nc(-c3cccnc3)nc3ccccc23)cc1 | inconclusive: 29.1 µM [falling, single point]
9 | CCC(=O)Nc1ccc(NC(=S)NC(=O)/C=C/c2ccccc2)cc1 | inconclusive: 29.1 µM [falling, single point]
19 | Nc1c(C(=O)Nc2ccccc2F)sc2nc(-c3ccco3)ccc12 | inconclusive: 32.6 µM [falling, single point]
22 | Clc1ccccc1C(c1ccccc1)(c1ccccc1)n1ccnc1 | inconclusive: 32.6 µM [falling, single point]
16 | CN1CCCN(Cc2nc(-c3ccc(Cl)cc3)no2)CC1 | inactive
2 | CCCCNC(=O)N1c2ccccc2CC1C (configuration not stated) | inconclusive: 16.4 µM [activator, partial curve, poor fit]

More records follow:

Row | SMILES | Potency
24 | COc1ccc(OC)c(/C=C/c2nc3ccccc3[nH]c2=O)c1 | inactive
25 | Cc1cccc(Nc2nnc(-c3ccc(N4CCOCC4)c([N+](=O)[O-])c3)c3ccccc23)c1 | inconclusive: 3.66 µM [falling, full curve, poor fit]
26 | Cc1cc(C)cc(Oc2ccc(NC(=O)C3CC=CCC3C(=O)O)cc2)c1 (configuration not stated) | inconclusive: 20.6 µM [falling, partial curve, poor fit]
27 | Cc1cccc(C)c1OCc1cc(C(=O)N2CCN3CCCC3C2)no1 (configuration not stated) | inconclusive: 29.1 µM [activator, single point]
28 | O=C(c1ccccc1O)N(Cc1ccco1)Cc1cccs1 | inconclusive: 14.6 µM [activator, partial curve, poor fit]
29 | COc1ccc(C(=O)Nc2ccc(Nc3ccccc3)cc2)cc1Br | inconclusive: 2.91 µM [falling, partial curve, poor fit]
30 | COc1ccc(CCNC(=O)CSc2nnnn2-c2cccc(C(C)=O)c2)cc1OC | inactive
31 | CCSc1nsc(NC(=O)Nc2ccccc2F)n1 | inconclusive: 25.9 µM [falling, single point]
32 | Fc1ccc(Cc2cn3cc(-c4ccccc4)nc3s2)cc1 | inconclusive: 0.366 µM [activator, full curve]
33 | CC(NC(=O)c1ccc(Br)s1)c1ccncc1 (configuration not stated) | inactive
34 | O=C1C(Cl)=C(N2CCCCCC2)C(=O)N1c1ccc(Br)cc1 | inconclusive: 23.1 µM [activator, single point]
35 | CC(=O)c1ccc(NC(=O)c2cnn3ccccc23)cc1 | inconclusive: 6.51 µM [falling, partial curve, poor fit]
36 | COc1ccc(-n2cnnc2)cc1 | inconclusive: 5.17 µM [activator, single point]
37 | O=C1CCC([N+](=O)[O-])C(c2ccccc2Br)N1 (configuration not stated) | inconclusive: 4.11 µM [falling, full curve, poor fit]
38 | NS(=O)(=O)c1ccc(-c2ccc(/C=N/Nc3ccc(C(=O)O)cc3)o2)cc1 | inconclusive: 20.6 µM [activator, partial curve]
39 | CN(C)c1ccc(CNS(=O)(=O)c2ccc3[nH]c4c(c3c2)CCCCC4)cc1 | inconclusive: 3.66 µM [falling, partial curve, poor fit]
40 | CCOC(=O)c1oc2c(C)c(O)ccc2c(=O)c1-c1nncn1-c1ccccc1 | inconclusive: 0.0058 µM [falling, full curve, poor fit]
41 | COC(=O)Nc1ccc(S(=O)(=O)N2CCCC(C(=O)NC3CCCCC3)C2)cc1 (configuration not stated) | inconclusive: 23.1 µM [falling, partial curve]
42 | COc1ccc(CNC(=O)c2ccc3c(c2)CCN3S(=O)(=O)c2ccc(C)cc2)cc1 | inconclusive: 18.4 µM [falling, single point]
43 | Cc1ccc(NC(=O)C2CCCN2S(=O)(=O)c2cccc3nsnc23)cc1Cl (configuration not stated) | inconclusive: 29.1 µM [falling, single point]
44 | Cc1ccc(NC(=O)/C(=C/c2cccc([N+](=O)[O-])c2)NC(=O)C2CCCCC2)c(C)c1 | active: 9.2 µM
45 | CC(C)CNC(=O)C(=O)N/N=C/c1cccs1 | inconclusive: 18.4 µM [activator, partial curve]
46 | COc1ccc(/C=C/C(=O)NC2CCCCCCC2)cc1S(=O)(=O)N1CCOCC1 | inconclusive: 29.1 µM [activator, single point]

Copied from the list:
`CCSc1nsc(NC(=O)Nc2ccccc2F)n1` – Potency: inconclusive: 25.9 µM [falling, single point]
`CC(=O)c1ccc(NC(=O)c2cnn3ccccc23)cc1` – Potency: inconclusive: 6.51 µM [falling, partial curve, poor fit]

Going on with the list:

Row | SMILES | Potency
47 | Cc1ccc(/C=N/NC(=O)C2=NNC(c3ccccc3)(c3ccccc3)C2)c(O)c1 | inconclusive: 16.4 µM [falling, single point]
48 | CC12CN3CC(C)(CN(C1)C3c1ccc3c(c1)OCO3)C2=O (configuration not stated) | inactive
49 | C[C@H](CO)N1C[C@H](C)[C@@H](CN(C)C(=O)Nc2ccccc2)Oc2c(NC(=O)Cc3ccccc3)cccc2C1=O | inactive
50 | CC(C)c1ccc(NC(=O)CSc2ncccc2C(=O)Oc2cccc([N+](=O)[O-])c2)cc1 | inconclusive: 5.17 µM [activator, full curve]
51 | CC(=O)Nc1cccc(S(=O)(=O)N2CCCCCC2)c1 | inactive
52 | COc1cccc(C2=NOC(C(=O)N3CCN(C(=O)c4ccco4)CC3)C2)c1 (configuration not stated) | inconclusive: 7.31 µM [falling, partial curve, poor fit]
53 | Cn1c(=O)cc(OCC(=O)NCCc2ccc(Cl)cc2)c2ccccc21 | inconclusive: 11.6 µM [falling, partial curve, poor fit]
54 | Cc1ccc(-c2nnc(Nc3ccc(Cl)c(Cl)c3)c3ccccc23)cc1S(=O)(=O)NCCO | inconclusive: 23.1 µM [falling, single point]
55 | CCCCN(c1nc2ccccc2nc1Cl)S(=O)(=O)c1ccc(C)cc1 | inconclusive: 25.9 µM [falling, single point]
56 | CCc1cc2c3c(c(=O)oc2cc1OC)CCCC3 | inactive
57 | Cc1ccc(C(C)C)c2oc(=O)cc(-c3ccc(-c4ccc(C(F)(F)F)cc4)cc3)c12 | inconclusive: 16.4 µM [falling, partial curve]
58 | CCOC(=O)c1c(C)n(-c2ccccc2)c2ccc(OC(=O)c3cc(OC)cc(OC)c3)cc12 | inactive
59 | O=[N+]([O-])c1c(Nc2ccccc2O)cc(Cl)c2nonc12 | inactive
60 | CC(=O)c1ccc2c(c1)OCCOCCOc1ccc(C(C)=O)cc1OCCOCCO2 | inconclusive: 5.8 µM [falling, full curve, poor fit]
61 | COc1ccc(Cc2nc3ccc(C(=O)NCCn4ccnc4C)cc3o2)cc1OC | inactive
62 | CN(C)c1cc[n+](CC(=O)Nc2ccc(OC(F)F)cc2)cc1 | active: 23.1 µM
63 | CCOC(=O)c1c(C)[nH]c(C)c1S(=O)(=O)NCC1CCN(Cc2ccccc2OC)CC1 | inactive
64 | O=C(NC1CCCC1)c1cc(S(=O)(=O)N2CCCC2)ccc1Cl | inactive
65 | CCCCNC(=O)c1nc2ncc(Br)cn2n1 | inactive
66 | COc1ccc(CN(C)C(=O)CC(c2ccccc2)c2ccccc2)cc1 | inconclusive: 20.6 µM [falling, single point]
67 | Cc1cn(CC(=O)NCCN2CCOCC2)c(=O)[nH]c1=O | inactive
